The supplement of paper PMC5407854, “Inhibitor of ppGalNAc-T3-mediated O-glycosylation blocks cancer cell invasiveness and lowers FGF23 levels” (eLife, 2017)
In all, about 1,700 compounds were measured (“T2 sensor activation Q score (MG/GFP ratio z-score vs DMSO controls)”: median about 0.3, highest 2% from about 1.9 on). Some of the results follow.

Tested on: ppGalNAc-T2 sensor
Assay: T2 sensor activation Q score (MG/GFP ratio z-score vs DMSO controls) (SD units); higher = more sensor activation (inhibition of ppGalNAc-T2 glycosylation)
Settings: HEK293 sensor cells; 10 µM; 6 h
Description: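 Cells were treated with compound at 10 uM for 6 h, then MG/GFP ratio was read by flow cytometry (10,000 cells per well, duplicate wells). Q = (R - R_neg)/SD_neg relative to DMSO vehicle controls; the signal rises when the glycosyltransferase is inhibited.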

Row | Compound | T2 sensor activation Q score
1 | CSc1cccc(NC(=O)OC2CCCCCCCCCCC2)c1 | 0.1
2 | CN(NC(=O)C(=O)NCc1ccco1)C(=O)NC1CCCCC1 | 0.4
3 | Cc1nc(-c2ccccc2)c(Cc2ccccc2O)c(=O)[nH]1 | 1.45
4 | O=C(O)c1ccc(OCCOc2ccccc2)cc1 | 0.55
5 | O=C(O)c1cc(Cl)n[nH]c1=O | 0.75
6 | O=C1C(Cl)=C(NCCc2ccccc2)C(=O)c2ccccc21 | 1.5
7 | CNc1nc(SC)n(C)c(=O)c1N=O | 0.4
8 | COc1ccc(Br)c2c1C(=O)CC2 | 1.4
9 | CC(C)c1cc(C(C)C)n2nc(N)nc2n1 | 1.25
10 | Cc1nc(Br)c(Br)c(C)c1Br | 0.1
11 | NC(=O)C1=C[C@H]2[C@H]3C=C[C@@]2(O)C(=O)O[C@@H]3O1 | 0.8
12 | CO/N=C1/C=C(C)C(=O)C(C)=C1C | 0.4
13 | O=C(O)C(=O)Nc1ncn[nH]1 | -0.7
14 | O=c1[nH]cnc(CN2CCCCC2)c1O | 0.2
15 | Cc1cccnc1NC(=O)c1csnn1 | -0.6
16 | CN1CCC=C(C(=O)N2c3ccccc3Sc3ccc(Cl)cc32)C1 | 0.25
17 | c1ccc(CSc2nnc3c4ccccc4c4ccccc4c3n2)cc1 | -1.55
18 | OC1(Cc2ccccc2)CCNCC1 | -0.5
19 | CC(C)(C)NC(=S)NC(C)(C)C | -1.7
20 | NC(=O)Nc1n[nH]c(-c2ccccc2)n1 | 0.6
21 | CS/C(N)=N\S(=O)(=O)c1ccc(NC(C)=O)cc1 | -0.25

Random excerpt: 2 records from the list, in no set order.
Row | Compound | T2 sensor activation Q score
7 | CNc1nc(SC)n(C)c(=O)c1N=O | 0.4
9 | CC(C)c1cc(C(C)C)n2nc(N)nc2n1 | 1.25

Carrying on:

Row | Compound | T2 sensor activation Q score
22 | N#C/C(=C\c1cc(O)c(O)c(O)c1)C(N)=O | 0.75
23 | Cc1ccccc1OCC(O)CN1CCN(c2ccc(Cl)cc2)CC1 (centres undefined) | 0.4
24 | CN(C)/N=N/c1nc[nH]c1C(N)=O | -0.9
25 | O=C(Nc1ccc(C(=O)O)c(O)c1)c1ccccc1 | 0.25
26 | Cc1nc2[nH]c(=O)n(O)c(=O)c2s1 | -0.35
27 | S=c1nc[nH]c2c1ncn2C1CCCO1 (centres undefined) | 0
28 | CC(=O)OCCn1c2nc(=O)[nH]c(=O)c-2nc2cc(C)c(C)cc21 | 0.6
29 | COc1cc(NCc2ccccc2O)c2ncccc2c1 | 0.95
30 | Cn1cnc2ncnn2c1=S | -0.05
31 | O=C(/C=C/c1cccnc1)/C=C/c1cccnc1 | 1.6
32 | COc1cc(CCC(=O)O)on1 | 1.45
33 | N#Cc1cnn(-c2cccc(Cl)c2)c1-n1cccc1 | 0.2
34 | Nc1ccc(NC(=O)c2ccc(C(=O)Nc3ccc(N)cc3)cc2)cc1 | 1.9
35 | CCOP(=O)(OCC)/C(C#N)=C/c1c[nH]c2ccccc12 | -0.2
36 | CC1=NN(c2ccccc2)C(=O)C1C(=S)SC1CC(=O)NC1=O (centres undefined) | 0.2
37 | O=c1[nH]c2ccccc2n1C1=CCNCC1 | 1.15
38 | Cn1c(=O)c2[nH]c(CCCc3ccc([N+](=O)[O-])cc3)nc2n(C)c1=O | 0.25
39 | Cn1c2c(sc1=O)CCC2 | -0.4
40 | S=C(Sc1ccc(Cl)cc1)Sc1ccc(Cl)cc1 | 1.05
41 | COc1ccc2nc(-c3ccc(Cl)cc3)cc(C(=O)O)c2c1 | -0.7
42 | N#Cc1c(N)nc(N)nc1Nc1ccc(Br)cc1 | 1.15

Filtered by structure: the compounds so far with a cyano group
Row | Compound | T2 sensor activation Q score
22 | N#C/C(=C\c1cc(O)c(O)c(O)c1)C(N)=O | 0.75
33 | N#Cc1cnn(-c2cccc(Cl)c2)c1-n1cccc1 | 0.2
35 | CCOP(=O)(OCC)/C(C#N)=C/c1c[nH]c2ccccc12 | -0.2
42 | N#Cc1c(N)nc(N)nc1Nc1ccc(Br)cc1 | 1.15

(continued)

Row | Compound | T2 sensor activation Q score
43 | CCCC1OC(c2cc3c(cc2Cl)OCO3)OCC1CC (centres undefined) | -1.4
44 | Oc1c(N=Nc2nn[nH]n2)ccc2ccccc12 | 3.6
45 | CCCCSc1cc(=O)[nH]c(N)n1 | 1.85
46 | O=C1c2ccccc2C(O)(c2ccccc2)N1c1ccncc1 (centres undefined) | 1.75
47 | CC(=O)Nc1cccc(NC(C)=O)n1 | 0.7
48 | CCOC(=O)CCC1(C(=O)OC)C(=O)CCCCC/C=C/1C(=O)OC (centres undefined) | -0.5
49 | NC(=O)c1cc(Br)cc(C2CCCCC2)c1O | 0.8
50 | O=C1c2ccccc2NC(c2cc(Cl)cc(Cl)c2O)N1CCc1ccccn1 (centres undefined) | -0.65
51 | Nc1ccc2c(c1)N=[N+]([O-])c1cc(N)ccc1C2 | 1.55
52 | CCSc1nc(O)cc(=O)[nH]1 | -0.9
53 | Cn1cnc([N+](=O)[O-])c1Sc1ncn[nH]1 | 0.25
54 | Oc1ccc(Nc2ccnc3cc(Cl)ccc23)cc1 | 1.55
55 | Cc1ccc(NC(=O)N2CCCCC2)cc1NC(=O)N1CCCCC1 | -0.2
56 | CCCS(=O)(=O)Nc1ccc(F)c(C(=O)c2c[nH]c3ncc(-c4ccc(Cl)cc4)cc23)c1F | 0.25
57 | CCOC(=O)N1C/C(=C\c2ccccc2)C(=O)/C(=C/c2ccccc2)C1 | 2.95
58 | Cc1nc(/N=C(/N)N(C)C)[nH]c(=O)c1C | 1.35
59 | OC(c1cc(C(F)(F)F)nc2c(Cl)cc(Cl)cc12)C1CCCCN1 (centres undefined) | 0.35
60 | C[C@@H](CN1CC(=O)NC(=O)C1)N1CC(=O)NC(=O)C1 | 0.25
61 | COc1cnc(SC)nc1Nc1ccc(C#N)cc1 | 1.65
62 | O=C(Nc1ccc(Oc2ccc(NC(=O)Nc3ccc([N+](=O)[O-])cc3)cc2)cc1)Nc1ccc([N+](=O)[O-])cc1 | 0.7
63 | O=C(O)/C(=C/c1ccccc1)c1ccccc1 | 0.05

Row | Compound | T2 sensor activation Q score
64 | O=c1c2ccccc2ncn1-c1ccc(Cl)cc1 | -1.3
65 | S=C1NC2(CCCCCC2)NN1c1ccccc1 | 0.05
66 | NC(N)=NCCCS(=O)(=O)Nc1ccc(Nc2c3ccccc3nc3cc([N+](=O)[O-])ccc23)cc1 | -0.65
67 | CCOc1nc(OCC)c2cnn(C)c2n1 | -0.25
68 | Oc1cc(CNC2CCCCC2)c(O)cc1CNC1CCCCC1 | 0.7
69 | Fc1ccc(-c2cc(-c3cccs3)cc(-c3ccccc3)n2)cc1 | 0.45
70 | NC(=O)c1ccc(N=Nc2c(O)c3ccccc3[nH]c2=O)cc1 | 1.05
71 | CCc1c(N=O)c(-c2ccccc2)n(O)[n+]1[O-] | 0.15
72 | Nc1cc([N+](=O)[O-])ccc1N1C(=O)CCCC1=O | -1.05
73 | COC1OC(O)C(NC(=O)C(F)(F)F)CC1O (centres undefined) | 1.2
74 | O=C(O)c1ccc2c(c1Nc1ccccc1)C(=O)c1ccccc1C2=O | -2.6
75 | CSc1nc(=O)[nH]nc1Sc1ccccc1 | -1.35
76 | O=NN(CCCl)C(=O)NC1CCCCC1 | -0.5
77 | COC(=O)c1c(-c2ccccc2)[nH]c(-c2nccc3ccccc23)c1C(=O)OC | -0.35
78 | O=C1c2ccccc2C(=O)c2[nH]cnc21 | 1.7
79 | Cn1c(=O)c2c(nc(Cc3ccccc3)n2C)n(C)c1=O | 1.35
80 | Cc1cc(=O)c2c(C)ccc(C)c2[nH]1 | -0.5
81 | COC(=O)c1ccc(C(=O)OC)c(=O)[nH]1 | 0.25
82 | Cc1cccc(Nc2sc(C(=O)c3cc4cc(Cl)ccc4o3)c(N)c2C#N)c1 | -0.75
83 | Cc1ccc(NC(=O)Nc2c(Cl)cccc2Cl)cn1 | -1.25
84 | CC1CCC(C(C)C)C(NC(=O)c2ccncc2)C1 (centres undefined) | -1
